Results are given in words; binding and its absence hold for the method and conditions named. Binding seen in cells or lysates may run through a third protein. Binding can be weak; no strength is given. Tags and fused reporters may be left off the sequences shown.

In this assay the target is T1, HA-Slug (human) (UniProt O43623).
T1 sequence: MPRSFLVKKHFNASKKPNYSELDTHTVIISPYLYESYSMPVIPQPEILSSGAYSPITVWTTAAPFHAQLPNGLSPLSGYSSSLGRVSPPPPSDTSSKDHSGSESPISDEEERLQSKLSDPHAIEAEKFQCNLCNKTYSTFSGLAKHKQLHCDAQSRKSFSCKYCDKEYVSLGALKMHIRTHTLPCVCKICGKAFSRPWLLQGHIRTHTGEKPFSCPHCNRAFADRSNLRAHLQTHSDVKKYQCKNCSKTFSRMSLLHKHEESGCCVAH
The experiment in a line: co-IP; domain mapping: a Flag- or HA-tagged full-length protein co-expressed with Myc-tagged truncations in HEK293T cells; immunoprecipitation with Flag, HA or Myc antibody, western blot.

For “Myc-tagged N-terminal truncation of PRMT5 (human) (domain or fragment)”, the binding result is reported as “binds”.

Source of the values: publication PMC9164399.
